For at least one entry, the source does not settle the construct or the ends of the probe. For part of these data: A negative result means that nothing was seen under these conditions. At least one verdict was read from the data and is not stated in words by the source. Tags and fusion partners may be left off the protein sequences shown.

The source of these data is article PMC9475456, “DDX56 transcriptionally activates MIST1 to facilitate tumorigenesis of HCC through PTEN-AKT signaling”.

Data set [1] has as its target T1, DDX56 (His-DDX56) (human) (UniProt Q9NY93).
T1 sequence (looked up, limits assumed): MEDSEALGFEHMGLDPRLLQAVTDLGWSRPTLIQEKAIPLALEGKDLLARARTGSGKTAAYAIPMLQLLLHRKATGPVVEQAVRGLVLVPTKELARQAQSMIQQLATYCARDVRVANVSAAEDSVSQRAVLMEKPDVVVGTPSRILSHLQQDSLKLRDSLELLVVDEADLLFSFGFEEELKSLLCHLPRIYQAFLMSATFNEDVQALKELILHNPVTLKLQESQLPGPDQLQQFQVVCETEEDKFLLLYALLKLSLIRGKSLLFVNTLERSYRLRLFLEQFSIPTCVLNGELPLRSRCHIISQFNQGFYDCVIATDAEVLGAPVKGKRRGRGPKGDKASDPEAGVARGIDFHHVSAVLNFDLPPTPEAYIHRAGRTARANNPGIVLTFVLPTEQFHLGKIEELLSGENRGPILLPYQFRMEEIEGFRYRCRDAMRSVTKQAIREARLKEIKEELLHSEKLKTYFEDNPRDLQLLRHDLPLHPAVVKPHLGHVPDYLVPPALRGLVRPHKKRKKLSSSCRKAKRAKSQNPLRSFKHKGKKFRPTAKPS
Description: EMSA. Particulars: LightShift EMSA kit, 20 uL: 2 uL 10x binding buffer, 1 uL 50% glycerol, 1 uL 100 mM MgCl2, 1 ug/uL poly(dI-dC), 1 uL 1% NP-40, 2 ug protein; commercial protein; protein details: N-terminal His; label: 5' biotin. (In general: Mobility shift assays separate free from complexed probe on a gel.)

Data set [2] concerns the target T1, DDX56 (His-DDX56) (human). Description: competition with a labelled probe. Particulars: 200-fold excess unlabeled probe inhibits binding of biotin probe; LightShift EMSA kit, 20 uL: 2 uL 10x binding buffer, 1 uL 50% glycerol, 1 uL 100 mM MgCl2, 1 ug/uL poly(dI-dC), 1 uL 1% NP-40, 2 ug protein; commercial protein; protein details: N-terminal His.

“ATGCGTCCGCGGCCCCTCCCGGGGCGGCTAAAGCGACGTGTCCT (double strand) [MIST1 promoter -28 to +15]”: in data set [1], the binding result was “no binding”.

“CGGACCCCGGCCCCGCCCCGGCCCCGCCCCGAGGGCTCATTTGC (double strand) [MIST1 promoter -72 to -29]”: in data set [1], the binding result was “no binding”.

In the case of “GCCACCTGGTCCGGGAGCCCCAGGCGCCGGCCTCCCGCCCGCCC (double strand) [unlabeled MIST1 competitor (-160 to -117)]”, the binding result in data set [2] was “binds”.

Turning to “GCCCGCAGGTGCCGCCACTGCTGCCCAGCGCCCGCCGGGACACC (double strand) [MIST1 promoter -116 to -73]”, the binding result in data set [1] is reported as “no binding”.

Take “TGTCCCCCGTGGGCAGCCTCGGCGCGTGTGGCCGCGGATCCCCAGGTAAC (double strand) [MIST1 promoter +16 to +64]”: the binding result in data set [1] is recorded as “no binding”.

As for “TTCTATCTTGGGGGCGGGGCGGAAGCTGGGGGCGGGGCTGCGCG (double strand) [MIST1 promoter -204 to -161]”, the binding result in data set [1] is recorded as “no binding”.
